In the supplement of paper PMC9578143, “Small-Molecule Ebselen Binds to YTHDF Proteins Interfering with the Recognition of N^6-Methyladenosine-Modified RNAs” (ACS Pharmacology & Translational Science, 2022):
Some of the results follow. Baselines shift from plate to plate; read single values as rough.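 Hits were defined as a z-score below −3.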 Residues, ends and D or L forms follow the SMILES beside them.

Target: T1, YTHDF1 YTH domain (aa 365-554) (UniProt Q9BYJ9)
T1 sequence (whole entry): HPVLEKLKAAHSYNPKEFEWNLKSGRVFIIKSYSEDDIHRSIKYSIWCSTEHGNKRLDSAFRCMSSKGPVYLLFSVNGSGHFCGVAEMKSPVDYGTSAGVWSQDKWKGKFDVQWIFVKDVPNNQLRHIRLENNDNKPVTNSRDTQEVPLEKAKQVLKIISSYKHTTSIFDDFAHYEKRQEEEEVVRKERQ
Assay: tryptophan fluorescence intensity z-score (mean); higher = higher fluorescence, less quenching (negative = binding / quenching)
Conditions: 10 µM

Tryptophan fluorescence intensity z-score, inactive:
O=NN(CCCl)C(=O)NCCCl (plate: M 13-14) 0.544, CCOC(=O)c1ncn2c1CN(C)C(=O)c1cc(F)ccc1-2 (plate: M 11-12) -0.132, CC(C(=O)O)c1cccc(C(=O)c2ccccc2)c1 (centres undefined) (plate: M 7-8) -0.142, CC(C)c1c(O)ccc2c1CC[C@H]1C(C)(C)CCC[C@]21C (plate: M 13-14) 0.373, CCCC1O[C@@H]2C[C@H]3[C@@H]4CCC5=CC(=O)C=C[C@]5(C)[C@H]4[C@@H](O)C[C@]3(C)[C@]2(C(=O)CO)O1 (some centres undefined) (plate: M 5-6) 0.0138, O=C(CCc1ccc(O)cc1)c1c(O)cc(O)cc1O[C@@H]1OC(CO)[C@@H](O)[C@@H](O)C1O (some centres undefined) (plate: M 17-18) -0.259, NCCNCCNCCN (plate: M 11-12) -0.384, CN(C)CCCSC(=N)N (plate: M 23-24) 0.166, CCN1CCCC(OC(=O)C(c2ccccc2)c2ccccc2)C1 (centres undefined) (plate: M 7-8) 0.131, O=C(O)c1ccc(S(=O)(=O)N(Cl)Cl)cc1 (plate: M 3-4) -0.0962, O=C(Oc1ccccc1C(=O)O)c1ccccc1O (plate: M 1-2) 0.17, COc1c(C)c2c(c(O)c1C/C=C(\C)CCC(=O)O)C(=O)OC2 (plate: M 5-6) 0.249, O=c1c(-c2ccc(O)cc2)coc2cc(O)ccc12 (plate: M 15-16) -0.281, CC(=O)CCCCn1c(=O)c2c(ncn2C)n(C)c1=O (plate: M 9-10) 0.0649, CN1C(=O)OC(C)(C)C1=O (plate: M 13-14) 0.189, C=C1[C@@H]([C@@]2(C)C=CC(=O)C(C)(C)[C@@H]2CC(=O)OC)CC[C@@]2(C)[C@H](c3ccoc3)OC(=O)[C@H]3O[C@]132 (plate: M 13-14) 0.354, C[C@@H]1O[C@@H](OC[C@H]2O[C@@H](Oc3c(-c4ccc(OCCO)c(OCCO)c4)oc4cc(OCCO)cc(O)c4c3=O)[C@H](O)[C@@H](O)[C@@H]2O)[C@H](O)[C@H](O)[C@H]1O (plate: M 23-24) -0.403, C[C@]12C=CC(=O)C=C1CC[C@H]1[C@@H]3C[C@@H](O)[C@](O)(C(=O)CO)[C@@]3(C)C[C@H](O)[C@@]12F (plate: M 13-14) 0.764, CC1(C)O[C@@H]2C[C@H]3[C@@H]4CCC5=CC(=O)CC[C@]5(C)[C@@]4(F)[C@@H](O)C[C@]3(C)[C@]2(C(=O)CCl)O1 (plate: M 13-14) 0.742, COc1ccc(C(=O)O)c(O)c1OC (plate: M 17-18) 0.265, CC(=O)O[C@H]1C[C@@H]2CC[C@@H]3[C@H](CC[C@@]4(C)[C@H]3C[C@H]([N+]3(C)CCCCC3)[C@@H]4OC(C)=O)[C@@]2(C)C[C@@H]1N1CCCCC1 (plate: M 11-12) 0.182, Cc1cc(C)cc(OCC2CNC(=O)O2)c1 (centres undefined) (plate: M 9-10) 0.0474, O=C(O[C@@H]1Cc2c(O)cc(O)cc2O[C@@H]1c1ccc(O)c(O)c1)c1cc(O)c(O)c(O)c1 (plate: M 15-16) 0.192, CCCCCC(=O)O[C@]1(C(C)=O)CC[C@H]2[C@@H]3CCC4=CC(=O)CC[C@]4(C)[C@H]3CC[C@@]21C (plate: M 3-4) 0.0231, CC[C@H]1OC(=O)C[C@@H](O)[C@H](C)[C@@H](O[C@@H]2O[C@H](C)[C@@H](O)[C@H](N(C)C)[C@H]2O)[C@@H](CCN2C[C@H](C)C[C@H](C)C2)C[C@@H](C)C(=O)/C=C/C(C)=C/[C@@H]1CO[C@@H]1O[C@H](C)[C@@H](O)[C@@H](OC)[C@H]1OC (plate: M 9-10) -0.43, CNCCCC12CCC(c3ccccc31)c1ccccc12 (plate: M 3-4) -0.36, Cc1coc2c1C(=O)C(=O)c1c-2ccc2c1CCCC2(C)C (plate: M 21-22) -0.0104, OC(c1cc(C(F)(F)F)nc2c(C(F)(F)F)cccc12)C1CCCCN1 (centres undefined) (plate: M 7-8) 0.162, CC(=O)O[C@H]1C[C@@]2(C)[C@@H](C[C@@H](O)[C@H]3[C@@]4(C)CC[C@@H](O)[C@@H](C)[C@@H]4CC[C@@]32C)/C1=C(\CCC=C(C)C)C(=O)O (plate: M 3-4) 0.13, CC(=O)N[C@@H](CS)C(=O)O (plate: M 1-2) -0.196, COc1cc(C2Oc3cc([C@H]4Oc5cc(O)cc(O)c5C(=O)[C@@H]4O)ccc3OC2CO)ccc1O (some centres undefined) (plate: M 19-20) 0.547, O=c1cc(-c2ccccc2)oc2cc(O)c(O)c(O)c12 (plate: M 19-20) -0.768, CC(C)CCCC(C)N (centres undefined) (plate: M 13-14) 0.676, COc1cccc(-c2cc(=O)c3cc(OC)ccc3o2)c1 (plate: M 19-20) 0.0593, CC[C@H](C)C(=O)O[C@H]1C[C@@H](C)C=C2C=C[C@H](C)[C@H](CC[C@@H]3C[C@@H](O)CC(=O)O3)[C@H]21 (plate: M 9-10) -0.971, CCOC(=O)c1c(C)cc(O)c(C=O)c1O (plate: M 21-22) -0.367, CCN(CC)CCOC(=O)c1ccc(N)cc1 (plate: M 5-6) -0.194, CC(C)C[C@H](N)C(=O)N[C@@H](C)C(=O)O (plate: M 21-22) (H-Leu-Ala-OH) 0.432, CC(=O)Oc1ccccc1C(=O)Oc1ccccc1C(=O)O (plate: M 23-24) 0.335, CCCCNc1cc(C(=O)O)cc(S(N)(=O)=O)c1Oc1ccccc1 (plate: M 7-8) 0.0448, O=c1c(O)c(-c2ccc(O)cc2)oc2ccccc12 (plate: M 19-20) 0.409, CNC[C@H](O)[C@@H](O)[C@H](O)[C@H](O)CO (plate: M 1-2) 0.429, Nc1ccc(S(=O)(=O)Nc2cnc3ccccc3n2)cc1 (plate: M 7-8) -0.036, NCCCC(O)(P(=O)(O)O)P(=O)(O)O (plate: M 9-10) -0.344, NC(=O)OCC(COC(N)=O)c1ccccc1 (plate: M 11-12) 0.0775, Cc1ccnc(NS(=O)(=O)c2ccc(N)cc2)n1 (plate: M 5-6) -0.126, O=c1c(O)c(-c2ccccc2)oc2cccc(O)c12 (plate: M 19-20) 0.108, CCCCC/C=C/CCC(=O)N[C@H]1[C@H](Oc2c3cc4cc2Oc2ccc(cc2Cl)[C@@H](O[C@@H]2O[C@H](CO)[C@@H](O)[C@H](O)[C@H]2NC(C)=O)[C@@H]2NC(=O)[C@H](NC(=O)[C@@H]4NC(=O)[C@H]4NC(=O)C(Cc5ccc(c(Cl)c5)O3)NC(=O)[C@H](N)c3ccc(O)c(c3)Oc3cc(O)cc4c3)c3ccc(O)c(c3)-c3c(OC4O[C@H](CO)[C@@H](O)[C@H](O)[C@@H]4O)cc(O)cc3[C@@H](C(=O)O)NC2=O)O[C@H](CO)[C@@H](O)[C@@H]1O (some centres undefined) [TEICOPLANIN[A(2-1)shown]] (plate: M 11-12) -0.669, CCCCCCCCCCCCCCCC(=O)OC[C@@H](NC(=O)C(Cl)Cl)[C@H](O)c1ccc([N+](=O)[O-])cc1 (plate: M 1-2) 0.531, COc1cc2nc(N(C)CCCNC(=O)C3CCCO3)nc(N)c2cc1OC (centres undefined) (plate: M 9-10) -0.854, O=C(O)/C=C/c1ccc(O)c(O)c1 (plate: M 19-20) -0.815, CC(=O)O[C@]1(C(C)=O)CC[C@H]2[C@@H]3C=C(Cl)C4=CC(=O)[C@@H]5C[C@@H]5[C@]4(C)[C@H]3CC[C@@]21C (plate: M 1-2) -0.407, Clc1ccc(CO/N=C(\Cn2ccnc2)c2ccc(Cl)cc2Cl)c(Cl)c1 (plate: M 9-10) -0.442, C#C[C@]1(OC(C)=O)CC[C@H]2[C@@H]3CCC4=CC(=NO)CC[C@@H]4[C@H]3CC[C@@]21CC (mixture of isomers) (plate: M 11-12) -0.142, COc1ccc2cc([C@H](C)CO)ccc2c1 (plate: M 9-10) -0.189, O=C(O)COCCN1CCN(C(c2ccccc2)c2ccc(Cl)cc2)CC1 (centres undefined) (plate: M 11-12) -0.359, N[C@@H]1CONC1=O (plate: M 1-2) 0.365, CC1=C(C(=O)O)N2C(=O)[C@@H](NC(=O)[C@H](N)C3=CCC=CC3)[C@H]2SC1 (plate: M 1-2) 0.249, N[C@@H](CCC(=O)N[C@@H](CS)C(=O)NCC(=O)O)C(=O)O (plate: M 19-20) 0.9, COc1cc(C(=O)NCCCCCC(=O)O)cc(OC)c1OC (plate: M 11-12) 0.0942, Cc1ncc(CO)c(CO)c1O (plate: M 11-12) 0.443, COc1cc2c3cc1Oc1cc(ccc1O)C[C@@H]1c4c(cc(OC)c(O)c4Oc4ccc(cc4)C[C@@H]3N(C)CC2)CC[N+]1(C)C (plate: M 5-6) 0.0207, N=C(N)NS(=O)(=O)c1ccc(N)cc1 (plate: M 7-8) 0.41, CC(=O)Oc1ccccc1C(=O)O (plate: M 1-2) -0.289
